# These are yes or no findings as the source states them, for the method shown. Some entries that bind do so weakly or less than the wild type.
# By UniProt entry, the sequences of proteins in these tests, tags left out.
# UniProt Q92878: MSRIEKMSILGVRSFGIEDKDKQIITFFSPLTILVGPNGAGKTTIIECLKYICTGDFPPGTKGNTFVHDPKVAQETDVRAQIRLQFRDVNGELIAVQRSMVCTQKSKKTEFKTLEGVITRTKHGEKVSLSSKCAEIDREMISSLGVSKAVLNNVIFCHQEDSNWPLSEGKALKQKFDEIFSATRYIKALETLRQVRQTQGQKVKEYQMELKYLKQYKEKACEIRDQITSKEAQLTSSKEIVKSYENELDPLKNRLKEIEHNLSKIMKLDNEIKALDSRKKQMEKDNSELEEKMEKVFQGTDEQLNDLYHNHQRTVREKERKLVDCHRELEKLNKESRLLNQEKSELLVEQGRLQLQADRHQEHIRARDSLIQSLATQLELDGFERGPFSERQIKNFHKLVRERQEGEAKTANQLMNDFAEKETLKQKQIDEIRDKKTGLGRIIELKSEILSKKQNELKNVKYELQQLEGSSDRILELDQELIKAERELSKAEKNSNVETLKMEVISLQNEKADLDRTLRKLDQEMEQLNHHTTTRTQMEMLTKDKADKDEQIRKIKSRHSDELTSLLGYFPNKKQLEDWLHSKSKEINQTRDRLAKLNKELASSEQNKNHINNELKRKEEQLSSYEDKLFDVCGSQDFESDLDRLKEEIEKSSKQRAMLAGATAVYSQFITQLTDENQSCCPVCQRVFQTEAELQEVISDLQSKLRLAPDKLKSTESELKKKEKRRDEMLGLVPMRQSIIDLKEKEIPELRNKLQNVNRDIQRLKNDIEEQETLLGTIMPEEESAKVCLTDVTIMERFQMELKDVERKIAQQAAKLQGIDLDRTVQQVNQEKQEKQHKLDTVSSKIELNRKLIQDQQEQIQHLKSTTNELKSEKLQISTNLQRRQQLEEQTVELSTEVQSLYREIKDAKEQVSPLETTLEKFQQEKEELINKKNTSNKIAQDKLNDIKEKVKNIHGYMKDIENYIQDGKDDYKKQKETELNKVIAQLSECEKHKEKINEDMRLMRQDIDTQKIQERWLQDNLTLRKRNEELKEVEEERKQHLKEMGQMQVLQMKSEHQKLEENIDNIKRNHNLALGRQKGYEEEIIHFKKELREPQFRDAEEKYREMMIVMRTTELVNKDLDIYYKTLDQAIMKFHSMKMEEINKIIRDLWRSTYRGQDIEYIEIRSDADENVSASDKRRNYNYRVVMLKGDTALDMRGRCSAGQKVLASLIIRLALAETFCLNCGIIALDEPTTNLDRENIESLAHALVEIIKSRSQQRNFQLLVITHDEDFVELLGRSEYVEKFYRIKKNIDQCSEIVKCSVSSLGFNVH
# T1: mCherry-LacR-MITF (human, UniProt O75030-9 1-419)
# T1 construct: MITF, human; In the self-association test the second copy was MITF-GFP (pEGFP-C1-MITF, Ngeow et al. 2018) in place of mCherry-LacR; also called LacR-mCherry-MITF; MITF WT; source: U2OS-LacO#13 cells, transfected, in cells; not shown: mCherry-LacR, N-terminal, kept
# T1 sequence (looked up): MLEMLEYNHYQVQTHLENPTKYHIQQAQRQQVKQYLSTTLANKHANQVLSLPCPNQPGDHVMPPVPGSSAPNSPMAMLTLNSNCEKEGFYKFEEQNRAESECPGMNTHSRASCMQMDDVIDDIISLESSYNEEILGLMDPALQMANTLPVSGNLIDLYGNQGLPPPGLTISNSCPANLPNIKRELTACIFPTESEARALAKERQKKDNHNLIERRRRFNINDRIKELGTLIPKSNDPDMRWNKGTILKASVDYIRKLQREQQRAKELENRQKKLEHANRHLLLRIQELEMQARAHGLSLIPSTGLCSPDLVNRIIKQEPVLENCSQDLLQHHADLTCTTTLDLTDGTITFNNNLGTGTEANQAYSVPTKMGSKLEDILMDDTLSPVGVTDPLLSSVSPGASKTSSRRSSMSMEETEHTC
# B1: NBS1-GFP (natural protein, UniProt O60934 1-754, looked up)
# chain: MWKLLPAAGPAGGEPYRLLTGVEYVVGRKNCAILIENDQSISRNHAVLTANFSVTNLSQTDEIPVLTLKDNSKYGTFVNEEKMQNGFSRTLKSGDGITFGVFGSKFRIEYEPLVACSSCLDVSGKTALNQAILQLGGFTVNNWTEECTHLVMVSVKVTIKTICALICGRPIVKPEYFTEFLKAVESKKQPPQIESFYPPLDEPSIGSKNVDLSGRQERKQIFKGKTFIFLNAKQHKKLSSAVVFGGGEARLITEENEEEHNFFLAPGTCVVDTGITNSQTLIPDCQKKWIQSIMDMLQRQGLRPIPEAEIGLAVIFMTTKNYCDPQGHPSTGLKTTTPGPSLSQGVSVDEKLMPSAPVNTTTYVADTESEQADTWDLSERPKEIKVSKMEQKFRMLSQDAPTVKESCKTSSNNNSMVSNTLAKMRIPNYQLSPTKLPSINKSKDRASQQQQTNSIRNYFQPSTKKRERDEENQEMSSCKSARIETSCSLLEQTQPATPSLWKNKEQHLSENEPVDTNSDNNLFTDTDLKSIVKNSASKSHAAEKLRSNKKREMDDVAIEDEVLEQLFKDTKPELEIDVKVQKQEEDVNVRKRPRMDIETNDTFSDEAVPESSKISQENEIGKKRELKEDSLWSAKEISNNDKLQDDSEMLPKKLLLTEFRSLVIKNSTSRNPSGINDDYGQLKNFKKFKKVTYPGAGKLPHIIGGSDLIAHHARKNTELEEWLRQEMEVQNQHAKEESLADDLFRYNPYLKRRR
# notes: NBS1 (nibrin), component of the MRN complex; plasmid pcDNA3.1(+)-C-eGFP-NBS1 from GenScript; also called GFP-NBS1; pcDNA3.1(+)-C-eGFP-NBS1; source: U2OS-LacO#13 cells, transfected, in cells; not shown: eGFP, C-terminal, kept
# Columns and labels:
# Assay in all cases: LacR/LacO nuclear tethering assay; U2OS-LacO#13 cells transfected 24 h with an mCherry-LacR bait (tethered at the LacO array) and a GFP-tagged prey; fixed, confocal microscopy; ratio of GFP fluorescence inside the mCherry dot to the rest of the nucleus
# mCherry-LacR-MITF = molecular target: T1, mCherry-LacR-MITF
# [1] = molecular target: MITF-S325A (nuclear tethering assay) (human) (UniProt O75030)
# [2] = molecular target: MITF-S325E (nuclear tethering assay) (human) (UniProt O75030)
# [3] = molecular target: MITF-E318K (nuclear tethering assay) (human) (UniProt O75030)
molecule,measurement,setting,value
RAD50-GFP (from UniProt Q92878 1-1312),binding,mCherry-LacR-MITF,binds
B1,binding,[1],binds weakly
same,binding,[2],binds
same,binding,[3],binds

# Source: publication doi:10.1101/2023.04.21.537819, “DNA damage-induced interaction between a lineage addiction oncogenic transcription factor and the MRN complex shapes a tissue-specific DNA Damage Response and cancer predisposition” (bioRxiv, 2023)
